# Test results published in publication PMC9832115.
# Results are given in words; binding and its absence hold for the method and conditions named. In cells and extracts the contact can be indirect. These calls come from enrichment with a bait or labelling near it, and not all partners need be listed.
# T1: DRC3 (mouse (endogenous in testis)) (UniProt Q9D5E4)
# T1 sequence: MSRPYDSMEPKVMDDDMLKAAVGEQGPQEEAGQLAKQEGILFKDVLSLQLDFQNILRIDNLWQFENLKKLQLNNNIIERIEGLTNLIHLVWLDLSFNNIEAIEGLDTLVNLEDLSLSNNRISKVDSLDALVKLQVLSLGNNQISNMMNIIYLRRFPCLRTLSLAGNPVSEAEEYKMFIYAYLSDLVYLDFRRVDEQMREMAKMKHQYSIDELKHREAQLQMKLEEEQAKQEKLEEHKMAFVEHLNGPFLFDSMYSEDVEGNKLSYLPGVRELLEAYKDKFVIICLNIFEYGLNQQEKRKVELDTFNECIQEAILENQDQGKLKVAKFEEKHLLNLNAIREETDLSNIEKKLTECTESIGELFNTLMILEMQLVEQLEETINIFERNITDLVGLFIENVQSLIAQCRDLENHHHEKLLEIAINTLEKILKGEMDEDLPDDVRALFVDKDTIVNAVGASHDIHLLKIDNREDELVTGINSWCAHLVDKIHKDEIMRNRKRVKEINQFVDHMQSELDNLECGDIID
# B1: IFT81 (protein, UniProt O35594 1-676)
# chain: MSDQIKFIVDSLNKEPFKKNYNLITFDSLGPMQLLQVLNDVLAEIDPKQDVDIREEMPEQTAKRMLNLLGILKYKPPGNATDMSTFRQGLVIGSKPVIYPVLHWLLQRSNELKKRAYLARFLIKLEVPSEFLQDETVADTNKQYEELMEAFKTLHKECEQLKTSGFSTAEIRRDISAMEEEKDQLMKRVERLKKRVETVQNHQRMLKIARQLRVEKEREEFLAQQKQEQKNQLFHAVQRLQRVQNQLKSMRHAAADAKPESLMKRLEEEIKFNSYMVTEKFPKELESKKKELHFLQKVVSEPAMGHSDLLELETKVNEVNTEINQLIEKKMMRNEPIEGKLSLYRQQASIISRKKEAKAEELQETKEKLASLEREVLVKTNQTREFDGTEVLKGDEFKRYVSKLRSKSTVFKKKHQIIAEFKAEFGLLQRTEELLKQRQETIQHQLRTIEEKKGISGYSYTQEELERVSALKSEVDEMKGRTLDDMSEMVKKLNSLVSEKKSALAPVIKELRQLRQKCQELTQECDEKKAQYDSCAAGLESNRSKLEQEVRGLREECLQEESKYHYTNCMIKNLEVELRRATDEMKAYVSSDQQEKRKAIREQYTKNITEQENLGKKLREKQKAVRESHGPNMKQAKMWRDLEQLMECKKQCFLKQQSPASIGQVIQEGGEDRLVL
# B2: IFT22 (protein, UniProt Q9DAI2 1-185)
# chain: MLKAKILFVGPCESGKTVLANFLTESSDITEYNPTQGVRILEFENPHVTSNNKGTGCEFELWDCGGDSKFESCWPALMKDAHGVVIVFNADIPSHLKEIEMWYSCFVQQQFLQDSHCMLVAHHKPGSGGERGSLALSPPLNKLKLVHSNLEEDPEEVRVEFIKYLKSIINSMSESRDREEMLIIT
# Biological target: T1, DRC3 (mouse (endogenous in testis))
# Experiment: affinity purification with mass spectrometry; immunoprecipitation-mass spectrometry, testicular protein from wild-type mice
row,Binder,binding
1,B1,binds
2,B2,binds
